# Conditions: intraperitoneal injection, 10 mg/kg; 0h to 12h after administration; frozen brain sections, IMS imaging mass spectrometry
smiles,measurement,value
"CC(CCC(=O)[O-])[N+](C)(C)C (stereo not shown) [4-TMAP, 4-(trimethylammonio) pentanoate]",changes in the content of 4-TMAP in brain tissue,can directly enter the brain tissue through the blood-brain barrier
